Primary screen of a compound library

Sequences of proteins named here, by UniProt entry; tags and fusion partners are left off. Residues count along the entry.
UniProt P9WNZ1, whole entry: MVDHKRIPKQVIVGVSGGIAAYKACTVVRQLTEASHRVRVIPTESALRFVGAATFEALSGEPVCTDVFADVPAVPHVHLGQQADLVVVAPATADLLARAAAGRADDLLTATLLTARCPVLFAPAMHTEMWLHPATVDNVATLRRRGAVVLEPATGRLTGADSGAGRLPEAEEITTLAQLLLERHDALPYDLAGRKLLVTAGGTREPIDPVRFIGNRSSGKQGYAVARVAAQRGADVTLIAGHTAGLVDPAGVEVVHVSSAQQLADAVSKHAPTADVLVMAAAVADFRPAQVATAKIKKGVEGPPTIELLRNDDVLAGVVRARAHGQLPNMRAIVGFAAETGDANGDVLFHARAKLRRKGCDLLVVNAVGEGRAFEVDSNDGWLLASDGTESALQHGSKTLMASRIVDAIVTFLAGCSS
UniProt Q4DA54, 1-478: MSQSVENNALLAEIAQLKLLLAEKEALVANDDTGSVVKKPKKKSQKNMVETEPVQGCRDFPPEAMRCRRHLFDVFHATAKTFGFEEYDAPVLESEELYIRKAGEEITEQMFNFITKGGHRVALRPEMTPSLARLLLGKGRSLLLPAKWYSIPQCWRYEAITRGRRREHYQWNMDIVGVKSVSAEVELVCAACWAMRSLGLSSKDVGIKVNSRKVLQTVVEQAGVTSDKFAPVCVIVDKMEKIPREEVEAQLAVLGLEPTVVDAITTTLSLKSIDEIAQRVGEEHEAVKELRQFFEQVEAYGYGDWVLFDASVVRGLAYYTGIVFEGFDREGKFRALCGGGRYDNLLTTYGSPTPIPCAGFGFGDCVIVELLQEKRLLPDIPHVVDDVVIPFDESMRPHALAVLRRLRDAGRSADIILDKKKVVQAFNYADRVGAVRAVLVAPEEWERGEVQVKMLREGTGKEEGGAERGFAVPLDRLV

From ChEMBL document CHEMBL3988442, “University of Dundee, Small-Polar-MMV Screening Library” (2021).

Results are given as percent effect. The controls that fix the scale are not given in the record; negative values are as filed. This is an unselected part of the compounds tested. A dash means the value is not listed here; it may have been measured.

A: 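Enzyme assay of CoaBC with a phosphate dye (Biomol Green) read at 650 nm. Target: Coenzyme A biosynthesis protein CoaBC, Mycobacterium tuberculosis (UniProt P9WNZ1). Concentration: 30 µM. Direction is inferred from only a few compounds that gave an IC50; most scored high, so higher reads as stronger inhibition. Most strong results did not repeat in a second test. Of about 67,000 compounds tested this way, about 40 (0.06%) reached 50% or more in at least one test.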
B: 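Enzyme assay of histidyl-tRNA synthetase; the read-out is not stated. Target: Histidine-tRNA ligase, Trypanosoma cruzi CL Brener (UniProt Q4DA54). Compounds at 30 µM. Direction is inferred from retests: higher values go with stronger inhibition. Size under these conditions: about 69,000 compounds, about 31 of them at 50% or above in at least one test.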

| structure | A | B |
|---|---|---|
| `Cc1csc(C2CCCCN2C(=O)c2cn[nH]c2C)n1` (stereo not given) | -3.106 | 5.714 |
| `O=C1CC(N(C(=O)c2ccc3c(c2)CCC3)C2CC2)C(=O)N1` (stereo not given) | -1.542 | 2.256 |
| `O=C(C[C@H]1[C@H]2CN(Cc3ccncc3)C[C@@H]12)N1CCCC1` | -3.308 | 0 |
| `CN1CCCC(c2cccc(-c3cccc(Cl)c3)n2)C1` (stereo not given) | -10.67 | 0.7752 |
| `O=C(CN1CCc2cncnc2C1)NC(c1ccccc1)C1CC1` (stereo not given) | -0.495 | 19.28 |
| `CC1CCN(CCCNC(=O)c2ccc(N(C)S(C)(=O)=O)cc2Cl)CC1` | -0.5076 | 1.345 |
| `Cc1nc(S(=O)(=O)N2CCc3[nH]nc(CCC(C)C)c3C2)cn1C` | 11.45 | -2.041 |
| `CNC(=O)COc1ccc(-c2ccccc2)nc1` | -4.018 | 2.762 |
| `Cc1ccc(C(=O)N2CCc3ncnc(C)c3CC2)cn1` | 4.912 | 1.493 |
| `Cc1cc(C(=O)N2C[C@@H]3COC[C@]3(c3nnc(C)o3)C2)on1` | 3.426 | 0.9901 |
| `COc1ccc(C(=O)Nc2cc(CC(C)C)nn2C)cc1` | 4.516 | 2.874 |
| `C=C(C)CN(CC)C(=O)c1cc(F)ccc1NS(C)(=O)=O` | 1.333 | 3.061 |
| `CC(C)c1nc(C2CCCN(C(=O)c3ccc4nncn4c3)C2)no1` (stereo not given) | -6.971 | 3.134 |
| `CC(C)(C)OC(=O)CNC(=O)CCc1nnc(-c2ccsc2)o1` | 2.727 | 0 |
| `O=C(c1cccnc1)N1Cc2[nH]nc(COCCO)c2C1` | - | 5.063 |
| `Cc1nc(CNC(=O)NCc2cccnc2N(C)C)cs1` | 0.7168 | 6.286 |
| `Cc1cn2c(n1)CCC(NC(=O)CCOc1ccccc1F)C2` (stereo not given) | 0.8264 | 5 |
| `COCC(c1cccc(C(F)(F)F)c1)N(C)C(=O)c1ccco1` (stereo not given) | 8.238 | 7.101 |
| `COCC(=O)NCCC(=O)N1CCN(S(=O)(=O)c2cccc(Br)c2)CC1` | 3.823 | 7.303 |
| `CC(NC(=O)CCCN(C)C)c1cn(-c2ccccc2)nn1` (stereo not given) | 11.21 | -3.982 |
| `CN1CCCC(CCC(=O)NCCCn2ncc3ccccc32)C1` (stereo not given) | -0.3802 | 2.155 |
| `COCCN1C(=O)CC[C@]12CC[C@@H](NCc1cccnc1OC)CC2` | -1.903 | 7.527 |
| `COc1ncccc1CN1CC[C@H]2O[C@@H](c3nnc(C)o3)CC[C@H]21` | - | 0 |
| `CCc1nc(CSCc2csc(CS(C)(=O)=O)n2)cs1` | 2.81 | 7 |
| `Cc1nc(CC(=O)N2CCCCC2Cn2cccn2)cs1` (stereo not given) | 0.2611 | 3.955 |
| `CN(CC(=O)N1CC(Oc2ccccc2Cl)C1)Cc1ccncc1` | -2.733 | -2.564 |
| `Cc1csc2nc3n(c(=O)c12)CCN(Cc1ccccn1)CC3` | 2.676 | 5.224 |
| `CCOCCN1CCN(Cc2nnc(C3CC3)o2)CC1CC` (stereo not given) | 9.168 | -1.653 |
| `Cc1nn(C)cc1CN(C)C(=O)c1ccncc1` | -17.8 | -0.8772 |
| `COc1ccccc1CCNC(=O)NC(C)COCC(F)(F)F` (stereo not given) | -2.439 | 0 |
| `Cc1nc(N2CCOCC2)nc2c1COCC21CCN(CC2CC2)C1` (stereo not given) | -29.44 | 6.522 |
| `CCc1nnc(Nc2cccc(C3CCCN(CC(C)(C)C)C3)n2)s1` (stereo not given) | 4.585 | 1.498 |
| `CCNC(=O)NC(=O)CSC(C)c1c(F)cccc1F` (stereo not given) | -7.589 | 9.544 |
| `Cc1ncncc1C(=O)NCCn1nc2ccccn2c1=O` | 8.095 | 7.872 |
| `CN1CCC(c2cccc(Cc3ccccc3)n2)CC1` | 2.663 | 11.11 |
| `CC(=O)N1CC[C@@H]2CN(C(=O)c3ccco3)CCO[C@@H]2C1` | -6.995 | 0.5464 |
| `O=C1CN(Cc2nnc(-c3ccc(Cl)cc3)o2)CCN1` | 4.536 | 1.058 |
| `Cc1n[nH]c2c1C(c1ccncc1)SCC(=O)N2` (stereo not given) | -3.511 | 6.931 |
| `Cc1nc2n(n1)CCN(S(=O)(=O)c1ccc(OC(F)(F)F)cc1)C2` | -2.114 | 3.922 |
| `Cn1ccnc1-c1nc2cc(S(=O)(=O)N3CCCC3)ccc2n1C` | 3.671 | 1.22 |
| `CC(C)(C)n1cc(C(=O)N2CCN(Cc3ccsc3)CC2)cn1` | -3.191 | 2.662 |
| `CN(C)C(=O)C1CCCN(C(=O)c2ccccc2-n2cc(CN)cn2)C1` (stereo not given) | 8.789 | 6.154 |
| `CC(=O)NCc1cc2n(n1)CCN(Cc1cccc(Cl)c1Cl)C2` | 0.1266 | 3.659 |
| `O=C(c1ccc(Br)o1)N1CCN(Cc2ccc(F)cc2)CC1` | 3.553 | 4.933 |
| `CC(C)OCCNC1(c2ccc(F)cc2)CCOCC1` | 9.545 | 5.946 |
| `COc1cccc(CN2C[C@@H]3COC[C@]3(COCc3ccccn3)C2)c1` | 2.637 | 5.882 |
| `Cn1nc(COc2cncnc2)c2c1CCN(Cc1ccco1)C2` | -14.87 | 5.747 |
| `Cc1nc(N2CCN(C(=O)c3cccnc3)CC2)cc(-n2cccc2)n1` | 5.395 | 0.4878 |
| `Nc1ncc2c(n1)CN(C1CCCC1)C2=O` | -7.273 | 5.021 |
| `O=C(Nc1ccc(F)c(Br)c1)N1CCCC1` | -12.22 | 4.813 |
| `Cc1cnc(-c2nc(O)c3c(n2)CN(C(=O)C2CC2)CC3)cn1` | 6.294 | 2.632 |
| `CCSc1ncccc1C(=O)NCc1ccc(N(C)C)cc1` | 8.495 | 3.409 |
| `COCCN(C)CC1CCCN1S(=O)(=O)c1cc(C)oc1C` (stereo not given) | -2.269 | 3.03 |
| `Cc1ccc(C(=O)N2CCn3cnc(COCC4CC4)c3C2)cn1` | 2.737 | 8.602 |
| `CC(=O)NCCNC(=O)c1cnc2c(c1)nc(-c1ccccc1Cl)n2C` | 9.442 | -1.163 |
| `CCc1cnc(N)nc1NC(C)c1ccc(C)c(C)c1` (stereo not given) | -41.26 | 13.81 |
| `CN(C)CC(=O)N1CCC2(CC1)Cc1ccccc1CN(C)C2=O` | -3.515 | -19.55 |
| `Cc1cc(C(=O)NCc2cccs2)nc(N2CCCC2)n1` | -6.005 | 3.478 |
| `Cc1nc(O)c2nnn(C[C@H]3CCCN3C(=O)CCC3CCCC3)c2n1` | 0 | 4.865 |
| `Clc1cccc2c3c([nH]c12)CCN(Cc1cc2n(n1)CCNC2)C3` | -3.069 | 14.14 |
| `CC(Cc1c(F)cccc1F)NC(=O)CSCC(N)=O` (stereo not given) | 0.4545 | 3.784 |
| `CCCC(=O)NCCc1cc(N2CCN(C(C)=O)CC2)nc(C2CC2)n1` | 2.941 | 10.64 |
| `CN(C)[C@@H]1CN(C(=O)Cc2cccs2)[C@@H]2CCCO[C@H]12` | 2.475 | 2.21 |
| `Cc1ccc(CNC(=O)C2CCN(C(=O)c3ccco3)CC2)n1C` | 0.9823 | 5.172 |
| `COc1ncc(CN2C[C@@H]3CC[C@@](O)(c4ccc(C)cn4)[C@@H]3C2)cn1` | 2.179 | 10 |
| `CC(NCC1CCN(CCO)CC1)c1ccc(F)c(Cl)c1` (stereo not given) | -41.32 | 8.743 |
| `CCS(=O)(=O)NC(CCSC)C(=O)Nc1ccccc1C` (stereo not given) | 2.945 | 4.294 |

The first 5 entries again:

structure,A,B
Cc1csc(C2CCCCN2C(=O)c2cn[nH]c2C)n1 (stereo not given),-3.106,5.714
O=C1CC(N(C(=O)c2ccc3c(c2)CCC3)C2CC2)C(=O)N1 (stereo not given),-1.542,2.256
O=C(C[C@H]1[C@H]2CN(Cc3ccncc3)C[C@@H]12)N1CCCC1,-3.308,0
CN1CCCC(c2cccc(-c3cccc(Cl)c3)n2)C1 (stereo not given),-10.67,0.7752
O=C(CN1CCc2cncnc2C1)NC(c1ccccc1)C1CC1 (stereo not given),-0.495,19.28